# From the supplement of paper PMC10849652
# Protein sequences, listed by entry. Tags and fused reporters are not part of them. Lines headed by an entry give the natural chain unless they say otherwise; changes in a name come on top.
# UniProt Q96EY8: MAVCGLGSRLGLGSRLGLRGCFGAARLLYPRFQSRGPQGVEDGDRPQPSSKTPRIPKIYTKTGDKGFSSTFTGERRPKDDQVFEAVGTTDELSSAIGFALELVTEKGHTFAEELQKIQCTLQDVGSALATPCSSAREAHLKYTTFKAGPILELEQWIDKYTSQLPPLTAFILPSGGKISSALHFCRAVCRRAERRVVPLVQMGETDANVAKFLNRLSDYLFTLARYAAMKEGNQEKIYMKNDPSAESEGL
# UniProt Q99797: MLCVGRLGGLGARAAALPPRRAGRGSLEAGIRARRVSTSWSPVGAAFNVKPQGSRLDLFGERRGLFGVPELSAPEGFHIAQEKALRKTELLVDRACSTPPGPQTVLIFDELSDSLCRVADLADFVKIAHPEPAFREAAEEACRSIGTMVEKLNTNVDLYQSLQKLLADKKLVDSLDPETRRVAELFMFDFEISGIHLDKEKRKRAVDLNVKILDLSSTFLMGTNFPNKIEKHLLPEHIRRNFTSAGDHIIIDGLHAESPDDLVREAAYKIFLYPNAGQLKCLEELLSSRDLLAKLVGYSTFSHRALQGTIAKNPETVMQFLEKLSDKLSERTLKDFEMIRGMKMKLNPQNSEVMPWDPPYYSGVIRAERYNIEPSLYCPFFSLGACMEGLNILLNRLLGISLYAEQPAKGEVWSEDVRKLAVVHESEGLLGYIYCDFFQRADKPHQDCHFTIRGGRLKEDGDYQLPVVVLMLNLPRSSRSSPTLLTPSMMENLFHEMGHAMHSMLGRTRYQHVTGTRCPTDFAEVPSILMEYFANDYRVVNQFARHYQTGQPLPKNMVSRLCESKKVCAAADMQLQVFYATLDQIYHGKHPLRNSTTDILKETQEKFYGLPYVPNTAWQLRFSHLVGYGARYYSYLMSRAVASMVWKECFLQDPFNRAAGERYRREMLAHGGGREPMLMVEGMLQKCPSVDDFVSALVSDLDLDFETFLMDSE
# UniProt O96007: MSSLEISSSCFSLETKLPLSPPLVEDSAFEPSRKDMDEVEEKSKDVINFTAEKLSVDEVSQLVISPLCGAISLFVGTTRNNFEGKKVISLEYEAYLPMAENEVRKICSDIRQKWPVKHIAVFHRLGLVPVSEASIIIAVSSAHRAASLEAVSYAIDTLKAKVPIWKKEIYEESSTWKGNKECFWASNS
# UniProt O14880: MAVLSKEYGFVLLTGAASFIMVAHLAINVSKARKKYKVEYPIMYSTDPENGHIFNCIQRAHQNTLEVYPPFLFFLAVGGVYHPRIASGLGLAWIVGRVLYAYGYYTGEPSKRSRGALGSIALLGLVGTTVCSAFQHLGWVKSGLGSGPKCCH
# UniProt O75352: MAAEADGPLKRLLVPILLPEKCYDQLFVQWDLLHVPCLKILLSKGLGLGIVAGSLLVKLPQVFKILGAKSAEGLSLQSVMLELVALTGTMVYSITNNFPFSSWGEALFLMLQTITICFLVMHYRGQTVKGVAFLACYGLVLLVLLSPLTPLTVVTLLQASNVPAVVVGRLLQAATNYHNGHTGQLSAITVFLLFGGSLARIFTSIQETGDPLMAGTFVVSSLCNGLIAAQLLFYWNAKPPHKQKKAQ
# UniProt Q9NZB8: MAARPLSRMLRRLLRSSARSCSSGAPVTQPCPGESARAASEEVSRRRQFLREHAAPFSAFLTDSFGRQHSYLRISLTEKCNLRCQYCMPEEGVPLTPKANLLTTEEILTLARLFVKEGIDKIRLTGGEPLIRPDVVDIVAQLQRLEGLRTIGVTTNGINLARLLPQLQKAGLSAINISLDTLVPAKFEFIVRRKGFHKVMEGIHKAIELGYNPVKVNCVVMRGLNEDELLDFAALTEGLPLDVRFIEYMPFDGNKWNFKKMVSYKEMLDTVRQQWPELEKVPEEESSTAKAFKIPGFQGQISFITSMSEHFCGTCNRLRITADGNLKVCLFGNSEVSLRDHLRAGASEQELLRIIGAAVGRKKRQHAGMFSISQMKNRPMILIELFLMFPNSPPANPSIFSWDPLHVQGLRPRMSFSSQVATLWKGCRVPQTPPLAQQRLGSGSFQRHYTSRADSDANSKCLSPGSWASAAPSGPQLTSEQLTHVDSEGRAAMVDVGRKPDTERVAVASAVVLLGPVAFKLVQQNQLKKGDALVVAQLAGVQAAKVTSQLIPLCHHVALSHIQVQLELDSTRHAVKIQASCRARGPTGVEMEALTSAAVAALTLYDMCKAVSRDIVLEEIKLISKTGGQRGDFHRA
# UniProt Q9BU76: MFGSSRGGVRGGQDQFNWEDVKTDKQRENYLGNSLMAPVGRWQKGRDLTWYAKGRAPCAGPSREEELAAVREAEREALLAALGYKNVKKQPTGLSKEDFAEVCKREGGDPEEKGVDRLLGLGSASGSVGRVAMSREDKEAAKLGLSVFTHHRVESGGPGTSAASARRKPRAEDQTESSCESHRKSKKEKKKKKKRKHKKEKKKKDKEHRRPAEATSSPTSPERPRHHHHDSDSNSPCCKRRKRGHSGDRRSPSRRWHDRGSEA
# UniProt P10620: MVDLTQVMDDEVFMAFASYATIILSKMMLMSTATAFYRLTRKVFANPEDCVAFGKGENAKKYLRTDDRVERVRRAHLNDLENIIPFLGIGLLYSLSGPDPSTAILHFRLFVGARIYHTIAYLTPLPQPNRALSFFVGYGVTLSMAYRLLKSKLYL
# UniProt P51948: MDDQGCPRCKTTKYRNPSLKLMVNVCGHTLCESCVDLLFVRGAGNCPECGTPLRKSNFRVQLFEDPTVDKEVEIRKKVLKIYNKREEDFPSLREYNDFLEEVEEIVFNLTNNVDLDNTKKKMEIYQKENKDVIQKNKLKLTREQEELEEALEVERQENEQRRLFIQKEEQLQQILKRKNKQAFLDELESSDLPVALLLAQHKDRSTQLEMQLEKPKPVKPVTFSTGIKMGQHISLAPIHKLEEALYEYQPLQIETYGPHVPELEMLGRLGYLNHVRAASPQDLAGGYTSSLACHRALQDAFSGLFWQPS
# UniProt P25325: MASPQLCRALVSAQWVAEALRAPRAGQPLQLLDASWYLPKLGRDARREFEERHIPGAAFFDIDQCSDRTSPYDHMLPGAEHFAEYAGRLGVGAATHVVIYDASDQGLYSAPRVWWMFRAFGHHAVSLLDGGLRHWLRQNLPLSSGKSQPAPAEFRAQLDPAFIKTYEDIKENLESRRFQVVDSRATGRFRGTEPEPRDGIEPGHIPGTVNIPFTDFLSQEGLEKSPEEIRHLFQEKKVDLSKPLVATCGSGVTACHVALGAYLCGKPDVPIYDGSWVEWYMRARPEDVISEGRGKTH
# UniProt Q5XKP0: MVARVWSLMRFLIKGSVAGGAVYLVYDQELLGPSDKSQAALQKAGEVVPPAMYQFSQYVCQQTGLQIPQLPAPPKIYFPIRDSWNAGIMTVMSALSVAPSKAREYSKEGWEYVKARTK
# UniProt P46013: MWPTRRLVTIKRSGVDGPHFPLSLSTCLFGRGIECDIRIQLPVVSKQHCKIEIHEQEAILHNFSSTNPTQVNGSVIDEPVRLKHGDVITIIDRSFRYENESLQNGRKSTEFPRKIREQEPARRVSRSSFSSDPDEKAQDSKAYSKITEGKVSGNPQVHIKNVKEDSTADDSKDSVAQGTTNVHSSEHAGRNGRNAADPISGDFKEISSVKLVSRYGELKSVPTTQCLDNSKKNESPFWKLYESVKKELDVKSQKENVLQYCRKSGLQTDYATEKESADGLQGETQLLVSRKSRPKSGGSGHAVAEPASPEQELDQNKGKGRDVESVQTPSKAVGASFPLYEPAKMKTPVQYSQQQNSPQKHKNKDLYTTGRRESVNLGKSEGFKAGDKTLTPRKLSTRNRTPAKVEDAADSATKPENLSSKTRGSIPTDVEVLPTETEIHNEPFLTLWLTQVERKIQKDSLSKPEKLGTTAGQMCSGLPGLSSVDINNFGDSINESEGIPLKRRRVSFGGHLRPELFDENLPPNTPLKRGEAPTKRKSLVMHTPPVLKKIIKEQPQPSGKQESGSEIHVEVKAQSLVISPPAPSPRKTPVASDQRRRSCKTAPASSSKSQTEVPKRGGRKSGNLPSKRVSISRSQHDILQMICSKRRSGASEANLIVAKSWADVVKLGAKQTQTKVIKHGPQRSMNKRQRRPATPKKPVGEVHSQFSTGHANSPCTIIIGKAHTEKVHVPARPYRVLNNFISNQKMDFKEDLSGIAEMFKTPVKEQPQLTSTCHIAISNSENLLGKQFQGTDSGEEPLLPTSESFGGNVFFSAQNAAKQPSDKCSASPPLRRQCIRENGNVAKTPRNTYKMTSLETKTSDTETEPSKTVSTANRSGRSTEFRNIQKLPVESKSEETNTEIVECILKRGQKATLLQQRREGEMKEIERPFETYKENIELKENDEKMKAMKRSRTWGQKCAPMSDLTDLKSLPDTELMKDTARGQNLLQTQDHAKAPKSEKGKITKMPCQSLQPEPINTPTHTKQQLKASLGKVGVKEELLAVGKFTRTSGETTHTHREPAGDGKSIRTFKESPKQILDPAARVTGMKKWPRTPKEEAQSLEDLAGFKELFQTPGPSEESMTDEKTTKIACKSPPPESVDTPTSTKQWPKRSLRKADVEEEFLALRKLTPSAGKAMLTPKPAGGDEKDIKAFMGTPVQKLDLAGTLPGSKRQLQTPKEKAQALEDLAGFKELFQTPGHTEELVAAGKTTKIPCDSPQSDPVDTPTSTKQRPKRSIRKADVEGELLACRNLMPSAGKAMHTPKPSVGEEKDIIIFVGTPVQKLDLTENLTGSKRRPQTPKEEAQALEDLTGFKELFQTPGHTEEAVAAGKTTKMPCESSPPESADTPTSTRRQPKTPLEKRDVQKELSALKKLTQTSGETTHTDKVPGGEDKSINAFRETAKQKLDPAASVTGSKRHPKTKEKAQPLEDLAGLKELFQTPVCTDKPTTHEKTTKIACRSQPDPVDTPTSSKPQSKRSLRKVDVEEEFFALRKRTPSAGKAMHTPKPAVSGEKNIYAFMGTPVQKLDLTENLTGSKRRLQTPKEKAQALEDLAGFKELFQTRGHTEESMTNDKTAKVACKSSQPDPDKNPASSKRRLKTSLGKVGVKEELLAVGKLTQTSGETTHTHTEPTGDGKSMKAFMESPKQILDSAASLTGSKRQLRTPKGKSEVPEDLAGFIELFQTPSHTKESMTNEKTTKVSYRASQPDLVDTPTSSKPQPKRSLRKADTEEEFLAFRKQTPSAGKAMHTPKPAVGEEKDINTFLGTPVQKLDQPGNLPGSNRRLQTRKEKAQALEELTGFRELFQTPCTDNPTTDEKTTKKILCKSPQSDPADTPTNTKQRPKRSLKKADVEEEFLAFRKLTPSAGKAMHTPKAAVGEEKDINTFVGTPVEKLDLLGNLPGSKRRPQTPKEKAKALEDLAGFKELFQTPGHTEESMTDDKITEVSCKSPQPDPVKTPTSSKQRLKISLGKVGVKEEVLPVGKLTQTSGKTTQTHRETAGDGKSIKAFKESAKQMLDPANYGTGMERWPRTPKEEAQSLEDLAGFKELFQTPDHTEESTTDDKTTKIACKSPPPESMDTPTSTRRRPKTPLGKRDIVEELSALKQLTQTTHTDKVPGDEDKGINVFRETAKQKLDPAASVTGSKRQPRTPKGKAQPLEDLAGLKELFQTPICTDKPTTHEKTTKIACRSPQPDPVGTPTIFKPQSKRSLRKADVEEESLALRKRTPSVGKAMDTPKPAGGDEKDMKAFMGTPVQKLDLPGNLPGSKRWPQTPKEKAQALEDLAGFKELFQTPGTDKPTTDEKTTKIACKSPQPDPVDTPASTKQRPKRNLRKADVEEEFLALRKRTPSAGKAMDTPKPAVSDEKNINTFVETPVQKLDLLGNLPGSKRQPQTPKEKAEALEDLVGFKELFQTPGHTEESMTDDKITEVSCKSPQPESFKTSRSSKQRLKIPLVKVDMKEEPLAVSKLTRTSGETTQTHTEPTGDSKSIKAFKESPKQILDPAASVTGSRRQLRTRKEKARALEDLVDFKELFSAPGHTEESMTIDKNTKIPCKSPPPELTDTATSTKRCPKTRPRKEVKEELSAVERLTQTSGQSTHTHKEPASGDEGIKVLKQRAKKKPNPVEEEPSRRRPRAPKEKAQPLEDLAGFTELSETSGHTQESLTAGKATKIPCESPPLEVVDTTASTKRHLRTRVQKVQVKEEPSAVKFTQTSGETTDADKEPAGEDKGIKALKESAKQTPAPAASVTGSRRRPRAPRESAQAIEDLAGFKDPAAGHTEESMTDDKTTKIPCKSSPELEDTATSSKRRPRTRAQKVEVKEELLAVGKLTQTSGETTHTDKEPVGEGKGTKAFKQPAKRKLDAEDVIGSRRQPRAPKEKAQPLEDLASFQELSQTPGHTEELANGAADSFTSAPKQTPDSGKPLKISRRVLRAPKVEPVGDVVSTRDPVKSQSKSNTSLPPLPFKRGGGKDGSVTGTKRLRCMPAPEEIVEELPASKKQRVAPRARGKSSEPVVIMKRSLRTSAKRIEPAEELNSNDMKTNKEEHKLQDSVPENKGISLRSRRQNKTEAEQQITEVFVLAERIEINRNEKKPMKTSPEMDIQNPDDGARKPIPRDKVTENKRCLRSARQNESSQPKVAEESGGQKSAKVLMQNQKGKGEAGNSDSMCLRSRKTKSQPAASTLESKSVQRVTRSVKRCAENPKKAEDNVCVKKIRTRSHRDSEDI
# Some of the results follow.
# Assays:
# Assay in all cases: log2 fold change, soluble protein after heating vs DMSO (PISA); higher = thermal stabilisation; K562 lysate, 10 uM; active = over 0.2 and 3.5 SD of the protein, either way, in both replicates (recomputed)
# lapatinib = compound: CS(=O)(=O)CCNCc1ccc(-c2ccc3ncnc(Nc4ccc(OCc5cccc(F)c5)c(Cl)c4)c3c2)o1 [lapatinib]
# How it was run: (§1)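 A 30 min treatment with 10 μM compound was applied to crude K562 extract at 1 mg/mL protein in PBS pH 7.4 with 1 mM MgCl2. Heating for 3 min spanned 48°C-58°C, after which aliquots were pooled, adjusted to 0.5% NP-40 at 4°C and spun at 21,000xg for 90 min. TMTpro 16plex LC-MS/MS of the supernatant, with channel sums equalised, gave values recorded as log-two fold change in thermal stability against solvent controls, from duplicates.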
# pictilisib = compound: CS(=O)(=O)N1CCN(Cc2cc3nc(-c4cccc5[nH]ncc45)nc(N4CCOCC4)c3s2)CC1 [pictilisib]
# How it was run: as §1
# crizotinib = compound: C[C@@H](Oc1cc(-c2cnn(C3CCNCC3)c2)cnc1N)c1c(Cl)ccc(F)c1Cl [crizotinib]
# How it was run: as §1
# [1] = compound: C[C@H](C1=CC=C(C=C1)C(=O)NC2=C3C=CNC3=NC=C2)N
# How it was run: as §1
# duvelisib = compound: C[C@H](Nc1ncnc2nc[nH]c12)c1cc2cccc(Cl)c2c(=O)n1-c1ccccc1 [duvelisib]
# How it was run: as §1
# gandotinib = compound: Cc1cc(Nc2cc(CN3CCOCC3)c3nc(C)c(Cc4ccc(Cl)cc4F)n3n2)n[nH]1 [gandotinib]
# How it was run: as §1
# tozasertib = compound: Cc1cc(Nc2cc(N3CCN(C)CC3)nc(Sc3ccc(NC(=O)C4CC4)cc3)n2)n[nH]1 [tozasertib]
# How it was run: as §1
# doramapimod = compound: Cc1ccc(-n2nc(C(C)(C)C)cc2NC(=O)Nc2ccc(OCCN3CCOCC3)c3ccccc23)cc1 [doramapimod]
# How it was run: as §1
# bafetinib = compound: Cc1ccc(NC(=O)c2ccc(CN3CC[C@H](N(C)C)C3)c(C(F)(F)F)c2)cc1Nc1nccc(-c2cncnc2)n1 [bafetinib]
# How it was run: as §1
# [2] = compound: Cc1cccc(CC(=O)N2CCc3c2ccc(-c2cn(C)c4ncnc(N)c24)c3F)n1
# How it was run: as §1
Target,log2 fold change (lapatinib),log2 fold change (pictilisib),log2 fold change (crizotinib),log2 fold change [1],log2 fold change (duvelisib),log2 fold change (gandotinib),log2 fold change (tozasertib),log2 fold change (doramapimod),log2 fold change (bafetinib),log2 fold change [2]
MRPL13 (UniProt Q9BYD1),inactive: 0.046,inactive: -0.018,inactive: -0.064,inactive: -0.051,inactive: -0.01,inactive: -0.022,inactive: 0.033,inactive: 0.049,inactive: -0.066,inactive: 0.041
MMAB (UniProt Q96EY8),inactive: 0.008,inactive: 0,inactive: 0,inactive: -0.038,inactive: 0.005,inactive: -0.005,inactive: -0.008,inactive: -0.03,inactive: 0.037,inactive: -0.013
MIPEP (UniProt Q99797),inactive: -0.013,inactive: -0.031,inactive: 0.041,inactive: -0.004,inactive: -0.022,inactive: -0.049,inactive: 0.072,inactive: -0.059,inactive: 0.016,inactive: 0.04
MOCS2 (UniProt O96007),inactive: 0.024,inactive: -0.027,inactive: 0.07,inactive: 0.089,inactive: 0.019,inactive: 0.043,inactive: -0.026,inactive: -0.073,inactive: -0.012,inactive: -0.001
MIS12 (UniProt Q9H081),inactive: -0.037,inactive: -0.07,inactive: -0.044,inactive: 0.001,inactive: -0.003,inactive: 0.018,inactive: -0.07,inactive: 0.017,inactive: -0.037,inactive: 0.028
MGST3 (UniProt O14880),inactive: 0.01,inactive: -0.017,inactive: 0.004,inactive: 0.23,inactive: -0.02,inactive: -0.078,inactive: -0.035,inactive: -0.025,inactive: -0.048,inactive: -0.087
MPV17 (UniProt P39210),inactive: -0.068,inactive: 0.133,inactive: 0,inactive: -0.028,inactive: -0.03,inactive: 0.326,inactive: 0.059,inactive: 0.092,inactive: 0.096,inactive: 0.045
MPDU1 (UniProt O75352),inactive: -0.004,inactive: 0.054,inactive: -0.076,inactive: -0.035,inactive: 0.015,inactive: 0.071,inactive: -0.124,inactive: 0.044,inactive: 0.002,inactive: 0.067
MPHOSPH10 (UniProt O00566),inactive: 0.026,inactive: 0.03,inactive: -0.033,inactive: 0.113,inactive: 0.005,inactive: -0.016,inactive: 0.029,inactive: 0.009,inactive: -0.048,inactive: -0.024
MOCS1 isoform 8 (UniProt Q9NZB8),inactive: -0.022,inactive: -0.003,inactive: -0.046,inactive: -0.078,inactive: 0,inactive: 0.012,inactive: 0.11,inactive: 0.018,inactive: -0.032,inactive: 0.04
MMTAG2 (UniProt Q9BU76),inactive: -0.045,inactive: 0.008,inactive: -0.006,inactive: 0.051,inactive: -0.023,inactive: -0.073,inactive: -0.027,inactive: -0.008,inactive: -0.051,inactive: 0.014
MPC2 (UniProt O95563),inactive: -0.028,inactive: -0.012,inactive: -0.018,inactive: -0.145,inactive: -0.007,inactive: 0.08,inactive: 0.004,inactive: -0.017,inactive: -0.038,inactive: 0.094
MORF4L2 (UniProt Q15014),inactive: 0.017,inactive: -0.014,inactive: 0.011,inactive: -0.029,inactive: 0.027,inactive: 0.002,inactive: 0.025,inactive: -0.051,inactive: 0.038,inactive: 0.038
MGST1 (UniProt P10620),inactive: -0.047,inactive: 0.018,inactive: 0.003,active: 0.22,inactive: 0.013,inactive: -0.025,inactive: -0.011,inactive: -0.041,inactive: -0.032,inactive: -0.016
MNAT1 (UniProt P51948),inactive: 0.011,inactive: -0.028,inactive: -0.043,inactive: -0.023,inactive: -0.001,inactive: 0.042,inactive: -0.019,inactive: 0.026,inactive: -0.032,inactive: 0.034
MPP1 (UniProt Q00013),inactive: 0.006,inactive: 0.016,inactive: 0.001,inactive: -0.006,inactive: 0.012,inactive: -0.008,inactive: 0.017,inactive: 0.006,inactive: -0.015,inactive: 0.001
MKNK1 (UniProt Q9BUB5),inactive: -0.029,inactive: -0.035,inactive: -0.065,inactive: 0.039,inactive: 0.009,inactive: -0.007,inactive: -0.007,inactive: -0.021,inactive: 0.005,inactive: 0.002
MPV17L2 (UniProt Q567V2),inactive: -0.061,inactive: 0.02,inactive: 0.001,inactive: -0.061,inactive: -0.059,inactive: 0.057,inactive: -0.165,inactive: -0.074,inactive: -0.067,inactive: 0.02
MPI (UniProt P34949),inactive: 0.02,inactive: -0.017,inactive: -0.029,inactive: 0.174,inactive: 0.007,inactive: -0.055,inactive: -0.043,inactive: 0.032,inactive: 0.013,inactive: -0.014
MIER1 isoform 12 (UniProt Q8N108),inactive: 0.019,inactive: 0.019,inactive: 0.006,inactive: -0.009,inactive: 0.027,inactive: 0.009,inactive: 0.001,inactive: -0.002,inactive: -0.013,inactive: 0.004
MRPL15 (UniProt Q9P015),inactive: -0.021,inactive: 0.036,inactive: -0.045,active: -0.421,inactive: -0.013,inactive: 0.134,inactive: 0,inactive: 0.079,inactive: -0.063,inactive: 0.241
MORC3 (UniProt Q14149),inactive: 0.021,inactive: -0.037,inactive: -0.02,inactive: 0.005,inactive: -0.001,inactive: -0.053,inactive: 0.001,inactive: 0.024,inactive: -0.001,inactive: 0.014
"MICB, A0A140T979",inactive: -0.169,inactive: -0.074,inactive: -0.067,inactive: -0.042,inactive: 0.052,inactive: 0.011,inactive: -0.177,inactive: -0.003,inactive: -0.001,inactive: 0.027
MRPL21 (UniProt Q7Z2W9),inactive: 0.039,inactive: 0,inactive: -0.05,inactive: -0.08,inactive: 0,inactive: 0.008,inactive: -0.057,inactive: 0.06,inactive: -0.033,inactive: 0.049
MICALL2 (UniProt Q8IY33),inactive: 0.027,inactive: -0.001,inactive: -0.006,inactive: 0.002,inactive: -0.011,inactive: 0.038,inactive: -0.014,inactive: 0.02,inactive: -0.082,inactive: -0.014
MIEF1 (UniProt Q9NQG6),inactive: 0.039,inactive: -0.034,inactive: -0.093,inactive: 0.003,inactive: -0.03,inactive: -0.185,inactive: -0.025,inactive: 0.059,inactive: -0.071,inactive: 0.017
MPZL1 (UniProt O95297),inactive: -0.006,inactive: -0.026,inactive: 0.074,inactive: 0.132,inactive: 0.001,inactive: -0.009,inactive: -0.029,inactive: -0.087,inactive: -0.027,inactive: -0.107
MPST isoform 2 (UniProt P25325),inactive: -0.01,inactive: -0.044,inactive: -0.016,inactive: -0.036,inactive: -0.003,inactive: 0.004,inactive: -0.029,inactive: 0.016,inactive: -0.019,inactive: -0.017
MICOS13 (UniProt Q5XKP0),inactive: -0.065,inactive: 0.023,inactive: -0.002,inactive: 0.017,inactive: 0.011,inactive: -0.082,inactive: -0.145,inactive: 0.013,inactive: -0.129,inactive: -0.016
MKI67 (UniProt P46013),inactive: -0.007,inactive: 0.059,inactive: -0.002,inactive: -0.015,inactive: 0.013,inactive: 0.025,inactive: 0.004,inactive: 0.001,inactive: -0.009,inactive: 0.021

# Complete entries from above. Order of values: log2 fold change (lapatinib)	log2 fold change (pictilisib)	log2 fold change (crizotinib)	log2 fold change [1]	log2 fold change (duvelisib)	log2 fold change (gandotinib)	log2 fold change (tozasertib)	log2 fold change (doramapimod)	log2 fold change (bafetinib)	log2 fold change [2]
# MOCS2 (UniProt O96007) is entered as inactive: 0.024	inactive: -0.027	inactive: 0.07	inactive: 0.089	inactive: 0.019	inactive: 0.043	inactive: -0.026	inactive: -0.073	inactive: -0.012	inactive: -0.001
# MPDU1 (UniProt O75352) is entered as inactive: -0.004	inactive: 0.054	inactive: -0.076	inactive: -0.035	inactive: 0.015	inactive: 0.071	inactive: -0.124	inactive: 0.044	inactive: 0.002	inactive: 0.067
